From doi:10.1101/2021.01.25.428116 come the findings set out here.

The target of test [1] is T1, PIN2-YFP (Arabidopsis thaliana PIN-FORMED 2, C-terminally tagged with YFP), expressed in HEK293T cells (Arabidopsis thaliana) (UniProt Q9LU77).
T1 sequence: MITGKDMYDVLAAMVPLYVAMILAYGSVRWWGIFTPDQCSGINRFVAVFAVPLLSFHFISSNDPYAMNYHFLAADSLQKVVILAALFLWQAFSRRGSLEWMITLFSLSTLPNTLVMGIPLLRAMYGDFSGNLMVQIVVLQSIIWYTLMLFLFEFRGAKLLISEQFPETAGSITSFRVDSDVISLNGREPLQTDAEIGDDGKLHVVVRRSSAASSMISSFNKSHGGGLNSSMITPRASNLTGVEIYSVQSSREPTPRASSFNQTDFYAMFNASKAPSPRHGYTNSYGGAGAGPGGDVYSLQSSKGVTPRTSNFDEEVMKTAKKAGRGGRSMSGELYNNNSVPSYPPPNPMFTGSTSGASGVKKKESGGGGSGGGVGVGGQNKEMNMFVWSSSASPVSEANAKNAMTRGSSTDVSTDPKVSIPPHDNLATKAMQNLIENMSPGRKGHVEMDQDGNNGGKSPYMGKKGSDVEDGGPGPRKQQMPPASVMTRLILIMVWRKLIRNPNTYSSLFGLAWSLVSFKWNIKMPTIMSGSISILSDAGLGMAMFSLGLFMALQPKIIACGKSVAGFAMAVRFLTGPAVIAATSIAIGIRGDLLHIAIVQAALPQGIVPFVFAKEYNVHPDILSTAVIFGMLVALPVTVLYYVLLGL
Briefly: FRET or BRET. A general note: Bioluminescence resonance energy transfer reports proximity on the nanometre scale.

Test [2] deals with T2, PIN2-YFP (Pro35S:PIN2-YFP), expressed in Nicotiana benthamiana leaf epidermal cells (Arabidopsis thaliana) (UniProt Q9LU77).
T2 sequence: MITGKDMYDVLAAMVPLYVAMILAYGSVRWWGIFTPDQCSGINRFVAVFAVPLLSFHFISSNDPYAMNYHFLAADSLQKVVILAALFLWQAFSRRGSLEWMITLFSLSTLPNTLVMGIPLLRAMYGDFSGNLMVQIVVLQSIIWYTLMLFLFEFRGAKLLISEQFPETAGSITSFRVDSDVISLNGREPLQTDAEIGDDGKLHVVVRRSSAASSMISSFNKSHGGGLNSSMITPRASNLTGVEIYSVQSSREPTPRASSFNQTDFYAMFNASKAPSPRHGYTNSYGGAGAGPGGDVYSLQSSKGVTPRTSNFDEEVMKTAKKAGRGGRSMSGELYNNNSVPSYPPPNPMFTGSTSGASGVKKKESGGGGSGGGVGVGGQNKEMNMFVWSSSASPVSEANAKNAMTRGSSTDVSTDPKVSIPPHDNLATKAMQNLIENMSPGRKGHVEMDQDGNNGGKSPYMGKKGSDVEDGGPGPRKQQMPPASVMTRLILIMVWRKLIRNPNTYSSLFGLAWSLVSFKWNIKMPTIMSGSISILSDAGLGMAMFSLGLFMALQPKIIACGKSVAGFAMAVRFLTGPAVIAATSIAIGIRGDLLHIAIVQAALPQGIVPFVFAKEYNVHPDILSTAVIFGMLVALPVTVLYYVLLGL
Briefly: FRET or BRET.

These are yes or no findings as the source states them, for the method shown. In cells and extracts the contact can be indirect. Some binding calls cover weakened binding; strength is not graded here. Tags and fused reporters may be left off the sequences shown.

B1: ABCB4-CFP (Arabidopsis thaliana ATP-binding cassette B4, C-terminally tagged with CFP), expressed in HEK293T cells (protein, UniProt O80725 1-1286)
chain: MASESGLNGDPNILEEVSETKRDKEEEEEVKKTEKKDEEHEKTKTVPFYKLFAFADSFDFLLMILGTLGSIGNGLGFPLMTLLFGDLIDAFGENQTNTTDKVSKVALKFVWLGIGTFAAAFLQLSGWMISGERQAARIRSLYLKTILRQDIAFFDIDTNTGEVVGRMSGDTVLIQDAMGEKVGKAIQLLATFVGGFVIAFVRGWLLTLVMLSSIPLLVMAGALLAIVIAKTASRGQTAYAKAATVVEQTIGSIRTVASFTGEKQAISNYNKHLVTAYKAGVIEGGSTGLGLGTLFLVVFCSYALAVWYGGKLILDKGYTGGQVLNIIIAVLTGSMSLGQTSPCLSAFAAGQAAAYKMFETIERRPNIDSYSTNGKVLDDIKGDIELKDVYFTYPARPDEQIFRGFSLFISSGTTVALVGQSGSGKSTVVSLIERFYDPQAGDVLIDGINLKEFQLKWIRSKIGLVSQEPVLFTASIKDNIAYGKEDATTEEIKAAAELANASKFVDKLPQGLDTMVGEHGTQLSGGQKQRIAVARAILKDPRILLLDEATSALDAESERVVQEALDRIMVNRTTVVVAHRLSTVRNADMIAVIHQGKIVEKGSHTELLKDPEGAYSQLIRLQEEKKSDENAAEEQKMSSIESFKQSSLRKSSLGRSLSKGGSSRGNSSRHSFNMFGFPAGIDGNVVQDQEEDDTTQPKTEPKKVSIFRIAALNKPEIPVLILGSISAAANGVILPIFGILISSVIKAFFQPPKKLKEDTSFWAIIFMVLGFASIIAYPAQTFFFAIAGCKLVQRIRSMCFEKVVHMEVGWFDEPENSSGTIGARLSADAATIRGLVGDSLAQTVQNLSSILAGLIIAFLACWQLAFVVLAMLPLIALNGFLYMKFMKGFSADAKKMYGEASQVANDAVGSIRTVASFCAEDKVMNMYSKKCEGPMKNGIRQGIVSGIGFGFSFFVLFSSYAASFYVGARLVDDGKTTFDSVFRVFFALTMAAMAISQSSSLSPDSSKADVAAASIFAIMDRESKIDPSVESGRVLDNVKGDIELRHVSFKYPARPDVQIFQDLCLSIRAGKTVALVGESGSGKSTVIALLQRFYDPDSGEITLDGVEIKSLRLKWLRQQTGLVSQEPILFNETIRANIAYGKGGDASESEIVSSAELSNAHGFISGLQQGYDTMVGERGIQLSGGQKQRVAIARAIVKDPKVLLLDEATSALDAESERVVQDALDRVMVNRTTIVVAHRLSTIKNADVIAVVKNGVIVEKGKHDTLINIKDGVYASLVQLHLTAAS
As for B1, the binding result in test [1] is reported as “binds”.

B2: ABCB4-CFP (Pro35S:ABCB4-CFP), expressed in Nicotiana benthamiana leaf epidermal cells (protein, UniProt O80725 1-1286)
chain: MASESGLNGDPNILEEVSETKRDKEEEEEVKKTEKKDEEHEKTKTVPFYKLFAFADSFDFLLMILGTLGSIGNGLGFPLMTLLFGDLIDAFGENQTNTTDKVSKVALKFVWLGIGTFAAAFLQLSGWMISGERQAARIRSLYLKTILRQDIAFFDIDTNTGEVVGRMSGDTVLIQDAMGEKVGKAIQLLATFVGGFVIAFVRGWLLTLVMLSSIPLLVMAGALLAIVIAKTASRGQTAYAKAATVVEQTIGSIRTVASFTGEKQAISNYNKHLVTAYKAGVIEGGSTGLGLGTLFLVVFCSYALAVWYGGKLILDKGYTGGQVLNIIIAVLTGSMSLGQTSPCLSAFAAGQAAAYKMFETIERRPNIDSYSTNGKVLDDIKGDIELKDVYFTYPARPDEQIFRGFSLFISSGTTVALVGQSGSGKSTVVSLIERFYDPQAGDVLIDGINLKEFQLKWIRSKIGLVSQEPVLFTASIKDNIAYGKEDATTEEIKAAAELANASKFVDKLPQGLDTMVGEHGTQLSGGQKQRIAVARAILKDPRILLLDEATSALDAESERVVQEALDRIMVNRTTVVVAHRLSTVRNADMIAVIHQGKIVEKGSHTELLKDPEGAYSQLIRLQEEKKSDENAAEEQKMSSIESFKQSSLRKSSLGRSLSKGGSSRGNSSRHSFNMFGFPAGIDGNVVQDQEEDDTTQPKTEPKKVSIFRIAALNKPEIPVLILGSISAAANGVILPIFGILISSVIKAFFQPPKKLKEDTSFWAIIFMVLGFASIIAYPAQTFFFAIAGCKLVQRIRSMCFEKVVHMEVGWFDEPENSSGTIGARLSADAATIRGLVGDSLAQTVQNLSSILAGLIIAFLACWQLAFVVLAMLPLIALNGFLYMKFMKGFSADAKKMYGEASQVANDAVGSIRTVASFCAEDKVMNMYSKKCEGPMKNGIRQGIVSGIGFGFSFFVLFSSYAASFYVGARLVDDGKTTFDSVFRVFFALTMAAMAISQSSSLSPDSSKADVAAASIFAIMDRESKIDPSVESGRVLDNVKGDIELRHVSFKYPARPDVQIFQDLCLSIRAGKTVALVGESGSGKSTVIALLQRFYDPDSGEITLDGVEIKSLRLKWLRQQTGLVSQEPILFNETIRANIAYGKGGDASESEIVSSAELSNAHGFISGLQQGYDTMVGERGIQLSGGQKQRVAIARAIVKDPKVLLLDEATSALDAESERVVQDALDRVMVNRTTIVVAHRLSTIKNADVIAVVKNGVIVEKGKHDTLINIKDGVYASLVQLHLTAAS
B2: in test [2], the binding entry is “binds”.
